Experimental data from paper PMC12040169 (PLOS Biology, 2025).
Some of the results follow.

Each compound was assayed on T1, CTL2-GFP (C. trachomatis L2/434/Bu, GFP-expressing). Conditions: bulk GFP, single well; 28.5 h, 10 µM; inhibitor.
T1 construct: L2/434/Bu, GFP-expressing
Design: species or system HeLa; Intracellular C. trachomatis growth in HeLa cells, bulk GFP fluorescence relative to DMSO

Structure (SMILES)	% of control remaining [%]
CN(C)CCN(C)Cc1ccc([N+](=O)[O-])cc1 [CBK261728]	97.7224
CC(C)Nc1cncc(OC2CCN(C)C2)n1 (stereo not shown) [CBK115598]	112.566
COc1ccccc1CC(=O)N(Cc1nc(-c2cccc(C)c2)no1)C(C)C [CBK269345]	99.314
Cc1ccc(SCCN2CCNCC2)cc1 [CBK266045G]	168.345
COC(=O)[C@H]1CN(C(=O)c2cn(C)nc2C)C[C@@H]1c1ccc(F)cc1 [CBK283720]	104.636
COc1ccc(-c2c(C)nn(-c3ccc(Cl)nn3)c2C)c(C(=O)O)c1 [CBK005774]	111.702
Nc1ccc(C(=O)Nc2ccc(Nc3cc(-c4cc(C(F)(F)F)cc(C(F)(F)F)c4)ncn3)cc2)cc1 [CBK091091]	189.527
O=C(O)CCc1ccc(-c2cccs2)n1CCOc1ccccc1Cl [CBK267885]	108.915
CCNC(=O)Nc1ncc(-c2ccc3c(c2)OCCCO3)c2cccnc12 [CBK070634]	100
CCn1nnnc1NCc1ccc(OCc2ccc(F)cc2Cl)c(OC)c1 [CBK268224]	100.799
COc1ccc(N)cc1OCCn1ccnc(N2CCNCC2)c1=O [CBK024211C]	131.667
COc1ccc(N2CCN(c3cncc(-c4cccs4)n3)CC2)cc1OC [CBK065687]	90.1717
O=C(c1cnc2[nH][nH]c(=O)c2c1)c1ccccc1O [CBK288082]	122.668
NS(=O)(=O)c1ccc(NC(=S)Nc2nn(Cc3ccc(Cl)cc3Cl)cc2Cl)cc1 [CBK267020]	131.357
Cc1cc(O)ccc1Nc1cc(-c2ccccc2N(C)C)ncn1 [CBK091051]	68.7482
CC(=O)c1c(C)oc2ccc(N(C(C)=O)S(=O)(=O)c3ccc(C(=O)O)cc3)cc12 [CBK299790]	140.011
Cc1ccc(CN(Cc2cncn2C)CC2CCCO2)o1 (stereo not shown) [CBK283272]	111.661
Cc1cc(NC(=O)CNC(=O)c2ccccc2)no1 [CBK073427]	85.7472
COc1cc(Nc2cncc(-c3ccc4ccccc4c3)n2)cc(OC)c1OC [CBK065176]	72.9402
CCC(CN1CCCC1)n1cncc1-c1cn(C)nc1C (stereo not shown) [CBK281459]	106.086
CCCn1nc(C)c(-c2cncn2CCN(C)C2CCCC2)c1C [CBK281790]	126.977
O=C(O)c1[nH]c2ccccc2c1C(c1ccc(OC2CCCC2)cc1)c1c(C(=O)O)[nH]c2ccccc12 [CBK267789]	126.667
CN(C)CCNCc1ccccc1OC1CCCC1 [CBK278214C]	201.219
Fc1cc(Br)ccc1-c1cn(-c2ccc(Oc3ccccc3)cc2)nn1 [CBK113145]	146.747
O=C(CCCC(=O)N1CCCC1)N1CCCC1 [CBK006992]	81.7179
CN(C)C(=O)CN1CCN(C(=O)c2ccccc2C(=O)c2ccc(F)cc2)CC1 [CBK297921]	141.229

Look-ups from the list:
Entry of COc1ccccc1CC(=O)N(Cc1nc(-c2cccc(C)c2)no1)C(C)C [CBK269345] under % of control remaining [%]: 99.314
Entry of Cc1cc(NC(=O)CNC(=O)c2ccccc2)no1 [CBK073427] under % of control remaining [%]: 85.7472
Entry of CN(C)C(=O)CN1CCN(C(=O)c2ccccc2C(=O)c2ccc(F)cc2)CC1 [CBK297921] under % of control remaining [%]: 141.229

The results go on.

Structure (SMILES)	% of control remaining [%]
OC(c1cccs1)C1CCN(Cc2ccc(Cn3cccn3)cc2)CC1 (stereo not shown) [CBK307454]	105.388
NC(=O)C1(N2CCCCC2)CCN(CC(=O)Nc2ccc(Br)cc2)CC1 [CBK268364]	149.26
CC1(C)CN=C(N2CCN(C3=NCC(C)(C)S3)CC2)S1 [CBK020461]	119.08
O=C(O)CCCC(=O)Nc1ccc(O)cc1 [CBK263567]	100
O=C(O)c1cc(C(=O)O)cc(N2C(=O)c3ccc(S(=O)(=O)c4ccc5c(c4)C(=O)N(c4cc(C(=O)O)cc(C(=O)O)c4)C5=O)cc3C2=O)c1 [CBK261336]	100
O=S(=O)(Nc1ccc2c(ccn2Cc2ccccc2)c1)c1ccc(S(=O)(=O)c2ccccc2)s1 [CBK159533]	108.769
CS(=O)(=O)NC1c2cccc3cccc(c23)C1N1CCOCC1 (stereo not shown) [CBK265845]	193.996
O=C(NCCCn1ccnc1)c1cccc(S(=O)(=O)N2CCCCC2)c1 [CBK304687]	109.292
COc1cccc2cc(C(=O)NC3CC3)oc12 [CBK149813]	119.21
CSc1ccc(CN(C)CCN(C)C)cc1 [CBK019349]	112.266
O=C(O)c1ccc(Cl)c2c1C1C=CCC1C(c1ccc(S(=O)(=O)N3CCOCC3)cc1)N2 (stereo not shown) [CBK268401]	134.456
Cc1ccc(CNC(=O)C2CC(=O)N(c3cccc(C)c3C)C2)cc1 (stereo not shown) [CBK295183]	127.705
O=C(O)CCNC(=O)c1ccc(C#CC2(O)CCCCC2)cc1 [CBK286554]	112.638
C[C@H]1CN2C[C@H](O)CC2CN1Cc1cccc2ccccc12 (stereo partly shown) [CBK284717]	114.504
CC(C)c1ccccc1NC(=O)NCCc1cccs1 [CBK043938]	121.352
NC(=O)c1ccccc1OCCO [CBK000640]	114.312
CCOC(=O)c1c(-c2ccc(OC)cc2)noc1C(O)c1ccccc1 (stereo not shown) [CBK002296]	127.048
COc1cc(NC(=O)CC2NC3CCCCC3NC2=O)cc(OC)c1 (stereo not shown) [CBK266597]	150.568
Cc1ccc2ccc(S(=O)(=O)NCc3cccnc3)cc2c1 [CBK262072]	97.3823
c1csc(-c2nccnc2NCCc2ccncc2)c1 [CBK036764]	100.038
c1ccc(CCN2CCC(Oc3cncc(OCC4COc5ccccc5O4)n3)C2)cc1 (stereo not shown) [CBK084382]	106.45
COc1ncccc1C(NC(=O)C1CCN(C(=O)OCc2ccccc2)CC1)c1ccccc1C (stereo not shown) [CBK076802]	150.676
Cc1cc(C(F)(F)F)n2nc(C3CCCN3C(=O)C(C)C)cc2n1 (stereo not shown) [CBK284685]	113.63
OCc1ccc(-c2nccnc2N2CCCC2CO)cc1 (stereo not shown) [CBK089053]	126.922
COc1ccnc(N2CCCN(CCCC#N)CC2)n1 [CBK084124]	157.331
CC(NC(=O)N(CCCN)Cc1ccccc1C(F)(F)F)c1ccccc1 (stereo not shown) [CBK034668C]	122.051
